Patent US20010039016, “Use of expression profiling for identifying molecular markers useful for diagnosis of metastatic cancer” (published 2001)
Results from cells or extracts need not show a direct contact. For some of these results: No signal at the amounts used counts as a negative. Protein sequences can lack the tags named with them.

Experiments:
[1] = biological target: T1, Cdx2 (endogenous, intestinal nuclear extract) (Homo sapiens) (UniProt Q99626); experiment: binding assay; details: Southwestern blot, ~40 kDa protein in T84 and Caco2 but not HepG2 extracts; protein in an extract; protein details: T84 / Caco2 nuclear extract; label: 32P 5'-end
T1 sequence (looked up, limits assumed): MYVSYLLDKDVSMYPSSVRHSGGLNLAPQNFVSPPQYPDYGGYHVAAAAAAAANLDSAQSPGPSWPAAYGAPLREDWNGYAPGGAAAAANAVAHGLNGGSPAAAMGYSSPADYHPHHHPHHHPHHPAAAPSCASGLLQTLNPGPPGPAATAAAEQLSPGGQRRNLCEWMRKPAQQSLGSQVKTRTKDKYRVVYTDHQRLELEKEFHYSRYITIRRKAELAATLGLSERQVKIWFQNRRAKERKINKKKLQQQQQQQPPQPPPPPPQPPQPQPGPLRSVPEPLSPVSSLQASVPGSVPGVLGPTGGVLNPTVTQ

[2] = biological target: T1, Cdx2 (endogenous, intestinal nuclear extract) (Homo sapiens); experiment: EMSA; details: protein in an extract, protein details: T84 / Caco2 nuclear extract
[3] = biological target: T1, Cdx2 (endogenous, intestinal nuclear extract) (Homo sapiens); experiment: competition with a labelled probe; details: unlabelled SIF1 competed the FP1 complex with greater potency than FP1; SIF1 also formed complexes with T84 and Caco2 extracts; protein in an extract; protein details: T84 / Caco2 nuclear extract; label: 32P 5'-end

Sequence: ATCTCTCTGTTTATAGCTCTGACCTTTCTGGGTGC (double strand) [FP1B]
- binding result [1]: binds

Sequence: CAGCTAATCTCTCTGCCCATAGCTCTGACCTTTC (double strand) [FP1-CCC]
- binding result ([2]; no specific complex with T84 extract, unlabelled FP1-CCC did not compete, label: 32P …, variant of FP1): no binding

Sequence: CAGCTAATCTCTCTGTTTATAGCTCTGACCTTTC (double strand) [FP1]
- binding result ([2]; intestine-specific complex, supershifted by anti-Cdx2 but not by anti-Cdx1, absent with HepG2 and HeLa extracts, label: 32P 5'-end): binds

Sequence: GATCCGGCTGGTGAGGGTGCAATAAAACTTTATGAGTA (double strand) [SIF1]
- binding result [3]: binds
